## Results of single-concentration screens

Chains of the proteins cited; added tags and fusions are not shown. Residues count along the entry.
UniProt A4I591, 1-473: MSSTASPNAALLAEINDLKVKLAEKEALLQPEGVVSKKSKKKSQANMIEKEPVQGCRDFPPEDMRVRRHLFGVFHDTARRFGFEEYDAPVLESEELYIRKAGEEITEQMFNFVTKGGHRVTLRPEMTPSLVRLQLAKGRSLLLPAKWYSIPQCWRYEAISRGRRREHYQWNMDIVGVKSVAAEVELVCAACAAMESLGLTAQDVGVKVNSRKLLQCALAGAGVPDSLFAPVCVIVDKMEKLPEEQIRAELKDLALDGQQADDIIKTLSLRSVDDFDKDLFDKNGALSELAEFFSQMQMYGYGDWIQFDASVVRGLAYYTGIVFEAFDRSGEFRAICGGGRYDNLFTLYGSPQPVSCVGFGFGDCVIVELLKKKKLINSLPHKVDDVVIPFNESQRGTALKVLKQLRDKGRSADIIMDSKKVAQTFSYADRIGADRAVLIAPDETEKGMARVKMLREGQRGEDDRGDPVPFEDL
UniProt I6X8D2, whole entry: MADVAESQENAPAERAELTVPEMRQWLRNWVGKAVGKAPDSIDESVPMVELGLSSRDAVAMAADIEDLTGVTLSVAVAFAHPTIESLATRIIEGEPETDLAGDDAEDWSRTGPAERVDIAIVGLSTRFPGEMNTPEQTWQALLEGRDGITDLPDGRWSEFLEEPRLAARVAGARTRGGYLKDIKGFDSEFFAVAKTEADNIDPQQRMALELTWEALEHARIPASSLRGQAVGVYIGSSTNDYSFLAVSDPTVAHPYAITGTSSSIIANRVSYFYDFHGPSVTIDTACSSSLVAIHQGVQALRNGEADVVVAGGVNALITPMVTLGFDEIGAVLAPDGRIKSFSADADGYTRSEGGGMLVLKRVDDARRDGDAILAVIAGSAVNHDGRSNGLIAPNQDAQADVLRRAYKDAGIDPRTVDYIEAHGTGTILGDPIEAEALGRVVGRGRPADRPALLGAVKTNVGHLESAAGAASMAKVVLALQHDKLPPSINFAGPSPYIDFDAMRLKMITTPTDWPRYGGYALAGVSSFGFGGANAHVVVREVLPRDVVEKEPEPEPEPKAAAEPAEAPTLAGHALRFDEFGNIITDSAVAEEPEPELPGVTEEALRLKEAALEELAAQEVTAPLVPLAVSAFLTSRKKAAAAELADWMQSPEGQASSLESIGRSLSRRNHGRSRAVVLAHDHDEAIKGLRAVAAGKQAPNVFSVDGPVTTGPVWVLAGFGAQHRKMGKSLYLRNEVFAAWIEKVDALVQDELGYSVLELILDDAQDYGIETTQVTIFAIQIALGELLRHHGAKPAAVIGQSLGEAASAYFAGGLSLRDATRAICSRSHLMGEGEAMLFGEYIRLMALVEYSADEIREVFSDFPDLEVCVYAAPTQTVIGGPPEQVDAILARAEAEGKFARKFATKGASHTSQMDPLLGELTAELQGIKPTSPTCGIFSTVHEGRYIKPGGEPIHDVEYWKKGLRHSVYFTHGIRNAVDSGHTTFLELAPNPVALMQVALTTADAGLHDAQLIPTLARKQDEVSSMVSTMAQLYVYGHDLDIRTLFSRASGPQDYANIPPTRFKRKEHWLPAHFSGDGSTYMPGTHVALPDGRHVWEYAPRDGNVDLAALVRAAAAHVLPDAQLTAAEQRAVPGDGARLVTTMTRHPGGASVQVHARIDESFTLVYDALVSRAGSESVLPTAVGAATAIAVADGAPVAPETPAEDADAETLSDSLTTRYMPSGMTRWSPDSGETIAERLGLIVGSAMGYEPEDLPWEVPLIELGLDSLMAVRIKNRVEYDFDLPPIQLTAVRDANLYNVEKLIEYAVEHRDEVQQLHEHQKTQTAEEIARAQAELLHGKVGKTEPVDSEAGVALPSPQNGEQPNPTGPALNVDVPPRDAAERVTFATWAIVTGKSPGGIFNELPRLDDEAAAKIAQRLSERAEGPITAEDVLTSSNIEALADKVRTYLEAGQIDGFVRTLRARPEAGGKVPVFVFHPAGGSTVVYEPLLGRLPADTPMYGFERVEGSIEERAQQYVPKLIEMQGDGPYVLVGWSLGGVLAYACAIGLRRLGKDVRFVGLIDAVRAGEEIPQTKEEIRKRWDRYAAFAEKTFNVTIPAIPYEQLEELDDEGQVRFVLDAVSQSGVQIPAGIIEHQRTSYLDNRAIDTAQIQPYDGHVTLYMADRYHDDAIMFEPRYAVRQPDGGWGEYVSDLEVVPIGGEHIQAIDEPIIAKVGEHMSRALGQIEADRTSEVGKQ

Source: ChEMBL document CHEMBL3988442, “University of Dundee, Small-Polar-MMV Screening Library” (2021).

Leishmania in macrophages: 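Cell assay of Leishmania donovani living inside macrophages; the read-out is not stated. Concentration: 30 µM. The record gives no direction; compounds that gave an IC50 in retests scored well above the rest, so higher reads as stronger inhibition. Size under these conditions: about 69,000 compounds, about 1,000 of them at 50% or above in at least one test.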
LiHisRS: 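Enzyme assay of histidyl-tRNA synthetase; the read-out is not stated. Target: Histidine-tRNA ligase, Leishmania infantum (UniProt A4I591). Concentration: 30 µM. Higher reads as stronger inhibition (inferred: compounds with an IC50 in retests scored well above the rest). The assay is labelled LdHisRS but filed under L. infantum. About 69,000 compounds were tested under these conditions; 0.6% (about 410) showed 50% or more at least once.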
Pks13 thioesterase: 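Polyketide synthase Pks13, Mycobacterium tuberculosis (UniProt I6X8D2). Enzyme assay of the thioesterase domain of polyketide synthase 13; the read-out is not stated. Compounds at 30 µM. Higher reads as stronger inhibition (inferred from which compounds were picked for retests). Of about 67,000 compounds tested this way, about 300 (0.46%) reached 50% or more in at least one test.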

Each number is a percent effect as filed. The controls that fix the scale are not given in the record; negative values are as filed. This is an unselected part of the compounds tested. Two or more numbers in one place are separate tests of the same structure; such repeats can differ widely.

For CN1CCCC1CNC(=O)CCCOc1ccc(F)cc1 (stereo unspecified) the result was Leishmania in macrophages: 23.9%; LiHisRS: 36%; Pks13 thioesterase: -8.094%.
For NC(=O)c1cnc(NCC(=O)NCc2ccco2)c(Cl)c1 the result was Leishmania in macrophages: 19.61%; LiHisRS: 14.29%; Pks13 thioesterase: -28.04%.
For CCCc1noc(CN2CCN(c3nccs3)CC2)n1 the result was Leishmania in macrophages: 1.223%; LiHisRS: 17.31%; Pks13 thioesterase: -3.339%.
For CCCS(=O)(=O)NC1CCN(c2nnc(C)c(C)c2C#N)CC1 the result was Leishmania in macrophages: -31.21%; LiHisRS: 11.57%; Pks13 thioesterase: 14.59%.
For CCOCc1ccc(NCc2cnc(N3CCN(C)CC3)nc2)cc1 the result was Leishmania in macrophages: 4.001%; LiHisRS: 24.66%.
For Cn1ccnc1CN1CCC2(COCCN(Cc3ccsc3)C2)C1 (stereo unspecified) the result was Leishmania in macrophages: 46.66%; LiHisRS: 19.81%; Pks13 thioesterase: -24.53%.
For Cc1nn(C)c(C)c1CC(=O)N1CCCC(CNS(C)(=O)=O)C1 (stereo unspecified) the result was Leishmania in macrophages: 36.85%; LiHisRS: 3.261%; Pks13 thioesterase: -5.364%.
For O=C(O)C(F)(F)F.O=C(O)C(F)(F)F.O=C(O)C(F)(F)F.[H][C@@]12CN(Cc3cccnc3)C[C@]1([H])[C@@H](OC)CCN2Cc1cnn(C)c1 the result was Leishmania in macrophages: 22.11%.
For O=C(c1cnccn1)N1CCOCC2(CCN(C3CCOCC3)C2)C1 (stereo unspecified) the result was LiHisRS: 19.42%; Pks13 thioesterase: -32.77%.
For COc1cccc(N2CC3(CCN(c4ccncn4)C3)CC2=O)c1 (stereo unspecified) the result was Leishmania in macrophages: -9.195% & -2.632%; LiHisRS: -2.655%.
For Cc1cccc(C2CCCN(C(=O)CN3CCCC3=O)C2)c1 (stereo unspecified) the result was Leishmania in macrophages: 36%; LiHisRS: 15%; Pks13 thioesterase: -27.97%.
For Cc1cnn(C2CCCN(C(=O)c3ccc(-n4ccnc4)cc3)C2)c1 (stereo unspecified) the result was Leishmania in macrophages: 14.7%; LiHisRS: 12.28%; Pks13 thioesterase: 1.909%.
For Cc1cc(C)c2[nH]c(=O)c(CN3CCCC4(C3)CN(C)C(=O)O4)cc2c1 (stereo unspecified) the result was Leishmania in macrophages: -4.844%; LiHisRS: 8.511%; Pks13 thioesterase: 15.2%.
For CN(C)S(=O)(=O)N1CCC(Oc2cnccn2)CC1 the result was Leishmania in macrophages: 7.605%; LiHisRS: 8.738%; Pks13 thioesterase: -8.765%.
For CC(C)n1cc(CN2CCCN(C(=O)COC3CCCC3)CC2)cn1 the result was Leishmania in macrophages: 27.47%; LiHisRS: 12.5%; Pks13 thioesterase: -2.608%.
For Cc1ccoc1-c1nnc(CN2CCn3c(nnc3C3CC3)C2)o1 the result was Leishmania in macrophages: -51.93%; LiHisRS: -1.351%; Pks13 thioesterase: 35.42%.
For CC(=O)N1CCC(NC(=O)Cc2nc3nc(C)cc(C)n3n2)CC1 the result was Leishmania in macrophages: 9.867%; LiHisRS: 10.71%; Pks13 thioesterase: -19.96%.
For COc1nn(C)cc1C(=O)NCC1(O)CCc2ccccc2C1 (stereo unspecified) the result was Leishmania in macrophages: 26.24%; LiHisRS: 17.07%; Pks13 thioesterase: 3.378%.
For CCC(C)C(=O)NCc1c(C)nn(C)c1N1CCCN(C)CC1 (stereo unspecified) the result was Leishmania in macrophages: 28.6%; LiHisRS: 20.35%; Pks13 thioesterase: -28.88%.
For CC(C)c1cc(C(=O)NCCCN(C)C)nc(N2CCCC2)n1 the result was Leishmania in macrophages: 48.07%; LiHisRS: 15.52%; Pks13 thioesterase: -6.546%.
For O=C(NCCNc1ncccn1)N(Cc1ccc(F)cc1F)C1CC1 the result was Leishmania in macrophages: 16.35%; LiHisRS: -43.82%; Pks13 thioesterase: -23.88%.
For Cc1ccc(N2CCCC(NC(=O)CCc3ccccn3)C2=O)cc1 (stereo unspecified) the result was Leishmania in macrophages: 22.96%; LiHisRS: 26.76%; Pks13 thioesterase: -21.41%.
For Cc1n[nH]c(C)c1CNC(=O)NC1CCCN(c2ccccc2F)C1 (stereo unspecified) the result was Leishmania in macrophages: 8.915%; LiHisRS: 1.299%; Pks13 thioesterase: -13.47%.
For c1cncc(-c2nc3c(c(NCC4(c5ccncc5)CC4)n2)CCC3)c1 the result was Leishmania in macrophages: 33.94%; LiHisRS: 8.571%; Pks13 thioesterase: -25.25%.
For CCc1nc(CC(=O)NCC(Cc2ccc(F)cc2)C(N)=O)cs1 (stereo unspecified) the result was Leishmania in macrophages: 12.62%; LiHisRS: 22.86%; Pks13 thioesterase: -17.23%.
For [H][C@]12CCCCN1CCC[C@@]2(O)CN1CCC(O)(Cn2ccnc2)CC1 the result was Leishmania in macrophages: -28.91%.
For O=C(O)C(F)(F)F.O=C(O)C(F)(F)F.[H][C@@]12C[C@@H](C(=O)Nc3cccnc3)CN(Cc3ccsc3)[C@]1([H])CCO2 the result was Leishmania in macrophages: 1.912%.
For O=C(CCN1CCOCC1)Nc1cccc(CNCc2ccsc2)c1 the result was Leishmania in macrophages: -2.136%; LiHisRS: -2.073%; Pks13 thioesterase: -2.413%.
For Cc1cccc(CNc2ccc(C(=O)N3CCC(CO)CC3)cc2)c1 the result was Leishmania in macrophages: 49.63%; LiHisRS: 7.292%; Pks13 thioesterase: -28.92%.
For Cc1noc(C)c1CN1CCN(C(=O)C(C(C)C)n2cncn2)CC1 (stereo unspecified) the result was Leishmania in macrophages: 0.07293%; LiHisRS: 5.882%; Pks13 thioesterase: -5.954%.
For Cn1cc(CCC(=O)N2CCCC(n3cncn3)C2)cn1 (stereo unspecified) the result was Leishmania in macrophages: 15.26%; LiHisRS: 10.34%; Pks13 thioesterase: -23.27%.
For Cc1cc(CN2CCN(c3ccc4nncn4n3)CC2)no1 the result was Leishmania in macrophages: 25.89%; LiHisRS: 17.39%; Pks13 thioesterase: -14.13%.
For CC(C)=CCN1C[C@H]2CC[C@@H]1CN(C(=O)Cc1c(C)nc(C)[nH]c1=O)C2 the result was LiHisRS: 6.557%; Pks13 thioesterase: -22.42%.
For [H][C@@]12CCN(C(=O)c3cnn(C)c3)[C@@]1([H])CCN2c1ccccn1 the result was Leishmania in macrophages: 28.1%.
For CCn1c(N)nc2cc(C(=O)N3CCCOCC3)cnc21 the result was Leishmania in macrophages: 23.64%; LiHisRS: 10.96%; Pks13 thioesterase: -17.34%.
For O=C(Cc1ccsc1)N1CCC[C@@H]1Cn1c(=O)oc2ccccc21 the result was Leishmania in macrophages: 8.074%; LiHisRS: 6.993%; Pks13 thioesterase: -8.879%.

Repeated from the top, 4 entries:

compound,Leishmania in macrophages,LiHisRS,Pks13 thioesterase
CN1CCCC1CNC(=O)CCCOc1ccc(F)cc1 (stereo unspecified),23.9%,36%,-8.094%
NC(=O)c1cnc(NCC(=O)NCc2ccco2)c(Cl)c1,19.61%,14.29%,-28.04%
CCCc1noc(CN2CCN(c3nccs3)CC2)n1,1.223%,17.31%,-3.339%
CCCS(=O)(=O)NC1CCN(c2nnc(C)c(C)c2C#N)CC1,-31.21%,11.57%,14.59%